For some assays here: Weaker means in comparison with the reference protein, sequence or condition of that experiment. Tags and fusion partners may be left off the protein sequences shown. For some assays here: The exact form of at least one protein or probe is not confirmed.
How the values were obtained:
[1] = biological target: T1, SII-Nab2 (Saccharomyces cerevisiae) (UniProt P32505); test: switchSENSE; conditions: kon 7-fold slower than rA60, Kd only in Fig 2E table; switchSENSE: 12.5 mM HEPES-KOH pH 8.0, 75 mM KOAc, 1 mM Mg(OAc)2, 0.025 mM EDTA, 25 C; recombinant …; residues 1-525; protein details: N-terminal SII; label: green dye on NL-A48, chip-tethered
T1 sequence (looked up): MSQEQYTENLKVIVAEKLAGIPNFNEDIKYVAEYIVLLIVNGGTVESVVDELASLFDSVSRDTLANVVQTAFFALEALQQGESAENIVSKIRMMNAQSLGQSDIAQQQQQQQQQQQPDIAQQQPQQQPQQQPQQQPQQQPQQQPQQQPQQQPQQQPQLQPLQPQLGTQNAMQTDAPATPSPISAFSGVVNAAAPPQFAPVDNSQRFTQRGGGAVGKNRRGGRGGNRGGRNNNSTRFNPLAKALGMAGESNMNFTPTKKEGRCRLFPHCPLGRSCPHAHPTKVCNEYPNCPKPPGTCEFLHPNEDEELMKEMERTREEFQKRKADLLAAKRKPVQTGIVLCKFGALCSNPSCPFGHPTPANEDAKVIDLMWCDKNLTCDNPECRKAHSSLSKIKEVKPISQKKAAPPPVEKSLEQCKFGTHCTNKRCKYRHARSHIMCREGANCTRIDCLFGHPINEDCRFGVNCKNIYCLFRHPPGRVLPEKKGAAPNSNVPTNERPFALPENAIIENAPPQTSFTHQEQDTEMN

[2] = biological target: T2, Nab2-6xHis (Saccharomyces cerevisiae) (UniProt P32505); test: SEC-MALS; conditions: 135 kDa complex, 2:1 Nab2:RNA; phosphate; switchSENSE: 12.5 mM HEPES-KOH pH 8.0, 75 mM KOAc, 1 mM Mg(OAc)2, 0.025 mM EDTA, 25 C; recombinant protein; residues 1-525; protein details: C-terminal 6xHis
T2 sequence (looked up): T1 sequence (looked up)

| Sequence | binding result [1] | binding result [2] |
| --- | --- | --- |
| TAGTGCTGTAGGAGAATATACGGGCTGCTCGTGTTGACAAGTACTGAT / ACAGATGACTGCTCGTCAATATCAGTACTTGTCAACACGAGCAGCCCGTATATTCTCCTACAGCACTA / ATTGACGAGCAGTCATCTGT [DNA nanolever only] | binds more weakly |  |
| AAAAAAAAAAAAAAAAAAAAAAAAAAAAAAAAAAAAAAAAAAAAAAAAAAAAAAAAAAA [A59 (R006)] |  | binds |
